No constants are given. Whether binding was seen depends on the method and setting. Some entries that bind do so weakly or less than the wild type.

The target in the test is cytosolic domain of VanSA (enterococci) (UniProt Q06240). In words: SEC; size exclusion chromatography of cVanSA, data not shown; both purified. (In general: Size exclusion chromatography separates by hydrodynamic size, large species first.)

B1: cytosolic domain of VanSA (domain or fragment, UniProt Q06240 98-384)
chain: MVKFAKYFDEINTGIDVLIQNEDKQIELSAEMDVMEQKLNTLKRTLEKREQDAKLAEQRKNDVVMYLAHDIKTPLTSIIGYLSLLDEAPDMPVDQKAKYVHITLDKAYRLEQLIDEFFEITRYNLQTITLTKTHIDLYYMLVQMTDEFYPQLSAHGKQAVIHAPEDLTVSGDPDKLARVFNNILKNAAAYSEDNSIIDITAGLSGDVVSIEFKNTGSIPKDKLAAIFEKFYRLDNARSSDTGGAGLGLAIAKEIIVQHGGQIYAESNDNYTTFRVELPAMPDLVDKRRS
Turning to B1, the binding entry is reported as “binds”.

The values are drawn from publication PMC6345502, “Vancomycin does not affect the enzymatic activities of purified VanSA” (PLoS ONE, 2019).
